Data taken from US20250011391A1, “ULTRA LIGHT-SENSITIVE NEUROPSIN-BASED OPTOGENETIC TOOL FOR ACTIVATING G q-COUPLED SIGNALING AND/OR ACTIVATING CELLS” (GENANS BIOTECHNOLOGY CO., LTD, priority 2021, published 2025).

B1: cOpn5: Chicken (Gallus gallus) Opn5 (neuropsin) ortholog, SEQ ID NO:1, GenBank NM_001130743.1 (protein, listed as Gallus lafayetii)
chain: MSGMASDCNSSSQEEYLPHYVQQEDPFASKLSREADIIAGFYLTVIGILSTLGNGYVIFMSSKRKKKLRPAEIMTVNLAVCDLGISVVGKPFSIISFFSHRWIFGWMGCRWYGWAGFFFGCGSLITMTAVSLDRYLKICHLAYGTWLKRHHAFICLALIWAYATFWATVPFAGVGSYAPEPFGTSCTLDWWLAQASVAGQAFVLSILFFCLLFPTAVIVFSYVKIILKVKSSTKEVAHYDTRIQNSHILEMKLTKVAMLICAGFLIAWIPYAVVSVWSAFGQPDSVPIQFSVVPTLLAKSAAMYNPIIYQVIDCKFACCRSGGPKTLQKKSSLKESRMYTLSSHRDSAALSGTQLEV
B2: mouse melanopsin (Opn4): mouse melanopsin, literature optogenetic tool in Table 8 (protein, UniProt Q9QXZ9 1-521, looked up)
Melanopsin: MDSPSGPRVLSSLTQDPSFTTSPALQGIWNGTQNVSVRAQLLSVSPTTSAHQAAAWVPFPTVDVPDHAHYTLGTVILLVGLTGMLGNLTVIYTFCRNRGLRTPANMFIINLAVSDFLMSVTQAPVFFASSLYKKWLFGETGCEFYAFCGAVFGITSMITLTAIAMDRYLVITRPLATIGRGSKRRTALVLLGVWLYALAWSLPPFFGWSAYVPEGLLTSCSWDYMTFTPQVRAYTMLLFCFVFFLPLLIIIFCYIFIFRAIRETGRACEGCGESPLRQRRQWQRLQSEWKMAKVALIVILLFVLSWAPYSTVALVAFAGYSHILTPYMSSVPAVIAKASAIHNPIIYAITHPKYRVAIAQHLPCLGVLLGVSGQRSHPSLSYRSTHRSTLSSQSSDLSWISGRKRQESLGSESEVGWTDTETTAAWGAAQQASGQSFCSQNLEDGELKASSSPQVQRSKTPKVPGPSTCRPMKGQGARPSSLRGDQKGRLAVCTGLSECPHPHTSQFPLAFLEDDVTLRHL
B3: human melanopsin: a natural opsin (melanopsin, Opn4) reported as a tool for Gq signaling activating (protein)
chain: MNPPSGPRVPPSPTQEPSCMATPAPPSWWDSSQSSISSLGRLPSISPTAPGTWAAAWVPLPTVDVPDHAHYTLGTVILLVGLTGMLGNLTVIYTFCRSRSLRTPANMFIINLAVSDFLMSFTQAPVFFTSSLYKQWLFGETGCEFYAFCGALFGISSMITLTAIALDRYLVITRPLATFGVASKRRAAFVLLGVWLYALAWSLPPFFGWSAYVPEGLLTSCSWDYMSFTPAVRAYTMLLCCFVFFLPLLIIIYCYIFIFRAIRETGRALQTFGACKGNGESLWQRQRLQSECKMAKIMLLVILLFVLSWAPYSAVALVAFAGYAHVLTPYMSSVPAVIAKASAIHNPIIYAITHPKYRVAIAQHLPCLGVLLGVSRRHSRPYPSYRSTHRSTLTSHTSNLSWISIRRRQESLGSESEVGWTHMEAAAVWGAAQQANGRSLYGQGLEDLEAKAPPRPQGHEAETPGKTKGLIPSQDPRM

Assays:
[1] = tested on: Gq signaling in HEK 293T cells; assay: Light-induced Ca2+ signal (Calbryte 630 AM dye) in opsin-expressing HEK 293T cells; type: cell-based; details: for Wavelength λmax (nm) / Stimulation duration: Table 8
Method: Whether heterologous expression of the Opn5 orthologs from chicken, turtles, humans and mice (which share 80-90% protein sequence identity) have the capacity to mediate blue light-induced Gq signaling activation within HEK 293T cells is tested (FIG. 1a and table 7). Blue light for stimulation and the red intracellular calcium indicator Calbryte™ 630 AM dye are used to monitor the relative Ca^2+ response (FIG. 1b).
b, Pseudocolor images of the Ca2+ signal before and after blue light stimulation (10 s; 100 μW/mm^2; 488 nm) in HEK 293T cells expressing Opn5 from three species (Gallus gallus, Homo sapiens, and Mus musculus). Scale bar, 10 μm.
Characterizing the light-activating properties of cOpn5 heterologously expressed in HEK 293T cells is performed. […] The effects of different light durations on cOpn5-expressing HEK 293T cells are tested. […] Therefore, the light sensitivity of cOpn5 is 3-4 orders of magnitude higher than the reported values of the light-sensitive Gq-coupled GPCRs and even 2-3 orders higher than those of the commonly used optogenetic tool Channelrhodopsin-2 (ChR2)(Lin, 2011; Zhang et al., 2006) (table 8).
The performance of cOpn5 to that of opto-a1AR, a chimera GPCR engineered by mixing rhodopsin with Gq-coupled adrenergic receptor is compared. […] The performance of cOpn5 to that of opn4, a natural opsin which was reported as a tool for Gq signaling activating is also compared. […] Therefore, compared with existing opsin-based tools (opto-a1AR and opn4), cOpn5 is much more light-sensitive (˜3 orders more sensitive), requires much shorter time exposure (10 ms vs. 60 s), and produces stronger responses. […]
Experiments description: the following table 9 is a partial list of cOpn5 orthologs from vertebrata tested in the present invention. Whole genes of all reported opsin5 orthologs from vertebrata (the vertebrates subphylum, including rotundia, cartilaginous fishes, bony fishes, Amphibia, reptila, ornitha and mammals) are synthetized, and expressed in HEK 293T cells. Calcium imaging with or without 470 nm blue light stimulation is performed to test the sensitivity of the opsin 5 orthologs in response to light. The time course of light-induced calcium signal reveal the activated degree of Gq signaling pathway and the sensitivity of these orthologs.

HEK293-TRPC3 cells = details: cited from earlier work
in vivo astrocytes = details: cited from earlier work

Row | Molecule | Need for exogeneous chemicals(retinal) ([1]; HEK 293T) | Wavelength λmax (nm) ([1]; HEK 293T) | Stimulation duration ([1]; HEK 293T cells, 0.026 μW/mm2) [s] | Stimulation duration ([1]; HEK 293T cells, 16 μW/mm2) [s] | Need for exogeneous chemicals(retinal) (HEK293-TRPC3 cells) | Stimulation duration (HEK293-TRPC3 cells) [s] | Wavelength λmax (nm) (HEK293-TRPC3 cells) | Stimulation duration ([1]; HEK 293T) [s] | Wavelength λmax (nm) (in vivo astrocytes)
1 | B1 | endogenous retinal is sufficient and No | 470 | >2 | 0.01 | – | – | – | – | –
2 | B2 | – | – | – | – | 11-cis- | >60 | 480 | – | –
3 | B3 | ATR | 470 | – | – | – | – | – | 25 | 473
